PubChem BioAssay AID1259425 | University of Nebraska Medical Center, 2018
Purpose: 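Seek colon cancer weak points whose silencing resembles KSR1 loss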 (primary screen). Cells: HCT116 human colon cancer cells. Reagent: siRNA pool against human genes, 50 nM siRNA. Measurement: 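After 50 nM siRNA pool, branched-DNA assay measures six marker transcripts per well, minus blank, normalised to the geometric mean of two housekeeping transcripts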. Reading the numbers: BNIP3L mRNA: higher = more BNIP3L transcript after knockdown; NDRG1 mRNA: higher = more NDRG1 transcript after knockdown; BNIP3 mRNA: higher = more BNIP3 transcript after knockdown; ALDOC mRNA: higher = more ALDOC transcript after knockdown; ACSL5 mRNA: higher = more ACSL5 transcript after knockdown.
Here is a random part of about 14,000 deposited reagents. A reagent listed more than once was tested more than once; the source does not tell the runs apart. Not given: the time to read-out.

BNIP3L mRNA, set 1	NDRG1 mRNA, set 1	BNIP3 mRNA, set 1	ALDOC mRNA, set 1	ACSL5 mRNA, set 1	gene
0.0617	0.286	0.355	0.0374	0.255	PIK3R2 (phosphoinositide-3-kinase regulatory subunit 2)
0.111	0.221	0.408	0.0215	0.189	SULT4A1 (sulfotransferase family 4A member 1)
0.108	0.156	0.368	0.026	0.226	ARSL (arylsulfatase L)
0.134	0.296	0.415	0.0191	0.163	CSN1S1 (casein alpha s1)
0.0788	0.044	0.366	0.00703	0.147	MAP2K4 (mitogen-activated protein kinase kinase 4)
0.144	0.489	0.305	0.029	0.135	CDHR2 (cadherin related family member 2)
0.0991	0.216	0.253	0.025	0.171	AR (androgen receptor)
0.132	0.388	0.353	0.0381	0.198	CPEB3 (cytoplasmic polyadenylation element binding protein 3)
0.111	0.169	0.436	0.0154	0.13	CBX6 (chromobox 6)
0.151	0.0596	0.276	0.00635	0.125	DIRAS1 (DIRAS family GTPase 1)
0.142	0.242	0.309	0.014	0.253	RIPK1 (receptor interacting serine/threonine kinase 1)
0.104	0.0863	0.327	0.0443	0.106	CMTR2 (cap methyltransferase 2)
0.0802	0.151	0.305	0.0135	0.163	WT1 (WT1 transcription factor)

Quoted from the listing, 3 entries:
BNIP3L mRNA, set 1	NDRG1 mRNA, set 1	BNIP3 mRNA, set 1	ALDOC mRNA, set 1	ACSL5 mRNA, set 1	gene
0.151	0.0596	0.276	0.00635	0.125	DIRAS1 (DIRAS family GTPase 1)
0.142	0.242	0.309	0.014	0.253	RIPK1 (receptor interacting serine/threonine kinase 1)
0.104	0.0863	0.327	0.0443	0.106	CMTR2 (cap methyltransferase 2)

Additional results follow.
BNIP3L mRNA, set 1	NDRG1 mRNA, set 1	BNIP3 mRNA, set 1	ALDOC mRNA, set 1	ACSL5 mRNA, set 1	gene
0.147	0.764	0.22	0.0195	0.127	KCNA6 (potassium voltage-gated channel subfamily A member 6)
0.118	0.209	0.205	0.0148	0.106	SRRM1 (serine and arginine repetitive matrix 1)
0.0772	0.201	0.292	0.0297	0.153	SEC24B (SEC24 homolog B, COPII component)
0.0905	0.148	0.328	0.0358	0.18	RPL37 (ribosomal protein L37)
0.0774	0.34	0.319	0.0617	0.162	ZNF671 (zinc finger protein 671)
0.0903	0.142	0.352	0.0422	0.224	ASF1A (anti-silencing function 1A histone chaperone)
0.249	0.233	0.793	0.0783	0.239	SMAD1 (SMAD family member 1)
0.234	0.205	0.816	0.0659	0.238	SMAD1 (SMAD family member 1)
0.18	0.268	0.315	0.0351	0.201	ST6GALNAC6 (ST6 N-acetylgalactosaminide alpha-2,6-sialyltransferase 6)
0.174	0.209	0.347	0.0643	0.184	BCL7C (BAF chromatin remodeling complex subunit BCL7C)
0.086	0.933	0.234	0.0412	0.2	SCARB2 (scavenger receptor class B member 2)
0.0633	0.301	0.275	0.0135	0.126	NKX3-1 (NK3 homeobox 1)
0.0308	0.2	0.264	0.0125	0.116	LITAF (lipopolysaccharide induced TNF factor)
0.11	0.189	0.264	0.0168	0.206	ACAT2 (acetyl-CoA acetyltransferase 2)
0.0499	0.166	0.217	0.0159	0.156	PXDN (peroxidasin)
0.0891	0.665	0.291	0.016	0.344	GAD2 (glutamate decarboxylase 2)
0.0709	0.122	0.269	0.0162	0.126	RARG (retinoic acid receptor gamma)
0.112	0.155	0.312	0.0424	0.145	ARHGEF4 (Rho guanine nucleotide exchange factor 4)
0.136	0.13	0.437	0.0165	0.25	IGFBP6 (insulin like growth factor binding protein 6)
0.154	0.292	0.272	0.0256	0.209	CPA3 (carboxypeptidase A3)
0.151	0.258	0.379	0.0431	0.301	LXN (latexin)
